# In US20240279622A1, “COELENTERAZINE-UTILIZING LUCIFERASES WITH STABLE GLOW-TYPE LIGHT EMISSION AND METHODS OF PRODUCING AND USING THEREOF” (MASARYKOVA UNIVERZITA, priority 2021, published 2024):
# B1: AncFT-D160A: AncFT carrying the single-point D160A mutation; blue-shifted emission (protein)
# chain: MVSASQRTTSTATGDEWWAKCKQVDVLDSEMSYYDSDPGKHKNTVIFLHGNPTSSYLWRNVIPHVEPLARCLAPDLIGMGKSGKLPNHSYRFVDHYRYLSAWFDSVNLPEKVTIVCHDWGSGLGFHWCNEHRDRVKGIVHMESVVDVIESWDEWPDIEEAIALIKSEAGEEMVLKKNFFIERLLPSSIMRKLSEEEMDAYREPFVEPGESRRPTLTWPREIPIKGDGPEDVIEIVKSYNKWLSTSKDIPKLFINADPGFFSNAIKKVTKNWPNQKTVTVKGLHFLQEDSPEEIGEAIADFLNELTK
# modifications: Amino acid sequence of AncFT-D160A
# notes: AncFT carrying the single-point D160A mutation; blue-shifted emission
# B2: AncFT: Ancestral protein AncHLD-RLuc with the L9-α4 region transplanted from RLuc; glow-type coelenterazine-utilizing luciferase (protein)
# chain: B1 chain with A160D
# modifications: Amino acid sequence of AncFT
# B3: AncFT-L14: AncFT with additionally transplanted L14 loop (LVKGGKP at positions 223 to 229) from RLuc (protein)
# chain: B1 chain with A160D, I223L, K224V, G225K, D226G, P228K, E229P
# modifications: Amino acid sequence of AncFT-L14
# notes: AncFT with additionally transplanted L14 loop (LVKGGKP at positions 223 to 229) from RLuc
# B4: RLuc8: Eight-point mutant of RLuc (A55T, C124A, S130A, K136R, A143M, M185V, M253L, and S287L) (protein)
# chain: MTSKVYDPEQRKRMITGPQWWARCKQMNVLDSFINYYDSEKHAENAVIFLHGNATSSYLWRHVVPHIEPVARCIIPDLIGMGKSGKSGNGSYRLLDHYKYLTAWFELLNLPKKIIFVGHDWGAALAFHYAYEHQDRIKAIVHMESVVDVIESWDEWPDIEEDIALIKSEEGEKMVLENNFFVETVLPSKIMRKLEPEEFAAYLEPFKEKGEVRRPTLSWPREIPLVKGGKPDVVQIVRNYNAYLRASDDLPKLFIESDPGFFSNAIVEGAKKFPNTEFVKVKGLHFLQEDAPDEMGKYIKSFVERVLKNEQ
# modifications: RLuc8
# B5: RLuc: Luciferase isolated from the sea pansy Renilla reniformis (protein)
# chain: B4 chain with T55A, A124C, A130S, R136K, M143A, V185M, L253M, L287S
# modifications: RLuc
# B6: Super RLuc8: Recently reported RLuc8 enzyme variant (Rahnama et el., 2017) (protein)
# chain: B4 chain with A123S, D154K, E155N, D162E, I163L, K189V, F261W, V267I
# modifications: Super RLuc8
# Test: Bioluminescence emission spectrum, peak maximum wavelength
# Format: biochemical
# Conditions: 100 mM potassium phosphate buffer pH 7.5, ambient temperature
# Procedure: Bioluminescence emission spectra were measured at ambient temperature using the spectrofluorometer FluoroMax-4 (HORIBA, Japan). 1 mL of an enzyme solution in 100 mM potassium phosphate buffer pH 7.5 was added into a quartz cuvette and the enzymatic reaction was initiated by manual injection of 50 μL of ethanolic solution of coelenterazine followed by a quick mixing. The acquisition of luminescence emission spectra started after 10 seconds from the addition of the coelenterazine substrate. The resulting concentration of an enzyme in the reaction mixture ranged from 0.7 to 1.0 μM while the concentration of coelenterazine was approximately 30 μM. The data were collected for wavelengths from 350 to 700 nm with a step of 2 nm and each spectrum was measured in triplicates. The obtained spectrum was normalized relative to the value of the highest peak for each of the enzymes individually and the shape and positions of the luminescence emission peaks were compared.
row,Molecule,Peak maximum wavelength (λmax) [nm]
1,B1,390
2,B2,454
3,B3,456
4,B4,478
5,B5,470
6,B6,540

# Test: not given
# Conditions: literature values; cited from earlier work
row,Molecule,Emission spectrum peak maximum [nm]
1,B4,487
2,B5,482

# Substitutions are numbered along the chain they refer to. Names and notes keep the numbering of the source.
